{
  "sequences": {"note": "By UniProt entry, the sequences of proteins in these tests, tags left out. Where a name states a change or a piece, a line headed by the entry shows the natural chain unless it says otherwise.", "UniProt O14924": "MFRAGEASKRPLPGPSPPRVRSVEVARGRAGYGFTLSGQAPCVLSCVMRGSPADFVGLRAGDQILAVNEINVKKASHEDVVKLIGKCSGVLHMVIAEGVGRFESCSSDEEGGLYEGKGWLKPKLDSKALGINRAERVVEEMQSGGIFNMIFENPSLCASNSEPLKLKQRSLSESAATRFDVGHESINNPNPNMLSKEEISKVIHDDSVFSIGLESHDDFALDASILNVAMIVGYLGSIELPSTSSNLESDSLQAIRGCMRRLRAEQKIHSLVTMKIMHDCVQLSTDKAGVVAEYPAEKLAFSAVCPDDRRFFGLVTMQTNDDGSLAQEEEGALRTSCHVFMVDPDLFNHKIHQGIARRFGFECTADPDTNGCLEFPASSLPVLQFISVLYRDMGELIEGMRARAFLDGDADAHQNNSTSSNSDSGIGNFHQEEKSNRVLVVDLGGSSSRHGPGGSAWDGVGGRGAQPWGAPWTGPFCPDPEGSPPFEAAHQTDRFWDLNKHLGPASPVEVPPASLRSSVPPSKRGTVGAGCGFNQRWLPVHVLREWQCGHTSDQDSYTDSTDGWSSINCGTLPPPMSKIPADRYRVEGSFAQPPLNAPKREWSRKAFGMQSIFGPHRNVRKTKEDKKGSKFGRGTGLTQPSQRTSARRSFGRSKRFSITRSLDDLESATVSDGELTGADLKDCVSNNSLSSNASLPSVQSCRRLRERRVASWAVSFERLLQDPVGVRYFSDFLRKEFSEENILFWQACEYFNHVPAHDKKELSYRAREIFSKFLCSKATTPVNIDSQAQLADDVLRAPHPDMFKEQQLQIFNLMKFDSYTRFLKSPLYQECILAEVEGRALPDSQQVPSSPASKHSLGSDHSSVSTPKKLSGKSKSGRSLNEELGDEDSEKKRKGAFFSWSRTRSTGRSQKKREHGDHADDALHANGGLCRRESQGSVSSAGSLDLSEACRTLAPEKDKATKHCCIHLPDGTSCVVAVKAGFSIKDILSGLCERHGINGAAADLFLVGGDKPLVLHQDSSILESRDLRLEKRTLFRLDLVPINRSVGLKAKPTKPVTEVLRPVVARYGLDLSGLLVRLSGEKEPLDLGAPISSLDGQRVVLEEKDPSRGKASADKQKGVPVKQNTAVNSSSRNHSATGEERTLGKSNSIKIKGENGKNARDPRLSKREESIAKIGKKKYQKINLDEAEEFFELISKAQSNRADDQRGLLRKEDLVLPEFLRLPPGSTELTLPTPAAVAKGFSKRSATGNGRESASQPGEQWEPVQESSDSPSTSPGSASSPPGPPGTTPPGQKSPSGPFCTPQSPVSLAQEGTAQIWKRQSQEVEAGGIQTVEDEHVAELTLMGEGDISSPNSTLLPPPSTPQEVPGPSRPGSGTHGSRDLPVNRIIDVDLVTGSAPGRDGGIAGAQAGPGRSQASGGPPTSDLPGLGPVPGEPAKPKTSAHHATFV"},
  "source": "PubChem BioAssay AID2390",
  "about": "(National Center for Advancing Translational Sciences (NCATS), 2010)",
  "note": "Inconclusive means that the source gave no clear call. Such entries were picked first, then a sample of the others. A potency beside an inconclusive call is a rough fit, not a confirmed value. The source made the active and inactive calls. The call rests on the fitted dose curve; in most records, active means well fitted inhibition curve with a large enough effect; inconclusive means small, poorly fitted or top-dose-only effect; inactive means no such curve, though single readings can be large or run the other way.",
  "data": [
    {"target": "Regulator of G-protein signaling 12 (Homo sapiens) (UniProt O14924)", "test": "Confirmation qHTS Assay for Inhibitors of RGS12 GoLoco Motif Activity (Red Fluorophore)", "details": "Gai1/rhodamine-RGS12 GoLoco peptide fluorescence polarization; series mostly up to 57.1 µM; activity, negative = inhibition: at the top concentration", "from_the_text": "G-protein-coupled receptors (GPCRs) are major targets for drug discovery. The regulator of G-protein signaling (RGS)-protein family has important roles in GPCR signal transduction. RGS proteins contain a conserved RGS-box, which is often accompanied by other signaling regulatory elements. RGS proteins accelerate the deactivation of G proteins to reduce GPCR signaling; however, some also have an effector function and transmit signals. Combining GPCR agonists with RGS inhibitors should potentiate responses, and could markedly increase the agonist's regional specificity. The diversity of RGS proteins with highly localized and dynamically regulated distributions in brain makes them attractive targets for pharmacotherapy of central nervous system disorders. […] A complex of Gai1 and fluorescently labeled G-alpha-binding peptide (the \"GoLoco motif\") derived from RGS12 is incubated with library members. Inhibitors of the binding are detected by a decrease in the fluorescence polarization (FP) of the fluorophore. Protein was supplied by Prof. David Siderovski, University of North Carolina at Chapel Hill. This BioAssay is a confirmatory run of primary qHTS protocol (AID: 880). See following reference for more details: Kimple AJ, et al. Comb Chem High Throughput Screen. 2008 Jun;11(5):396-409. Assay Submitter: Siderovski, David P, University of North Carolina at Chapel Hill Screening Center PI: Austin, C.P. Screening Center: NIH Chemical Genomics Center [NCGC] NIH Grant: NS053754-01\nReagents/Controls: Assay Buffer: 10 mM Tris-HCl, 150 mM NaCl, 0.1 mM GDP (prepared fresh), and 0.05% NP40 at pH 7.5. […] 15 nM Rhodamine labeled peptide/25 nM protein in columns 1, 2, 5 - 48. Titration of unlabeled peptide control ([H][…][NH2], custom synthesized and HPLC-purified by Tufts University Core Facility) from 20 mM, then 1:2 dilution, 16-point in duplicate, pin-transferred to column 2, rows 1 to 32. Column 1 is neutral. Rhodamine-labeled peptide (Rhodamine-[…]-NH2) was custom-synthesized and HPLC-purified by Invitrogen (Carlsbad, CA). Assay Steps. Four uL of reagents were dispensed to 1536-well Greiner black solid-bottom plates. Compounds and controls (23 nL) were transferred via Kalypsys PinTool. The plates were incubated for 10 min at room temperature, and then read on ViewLux (Perkin-Elmer) High-throughput CCD imager using BODIPY for the rhodamine-labeled decapeptide probe. During dispense, reagent bottles were kept submerged into 4 deg C water bath and all liquid lines were covered with aluminum foil to minimize probe and protein degradation. All screening operations were performed on a Kalypsys robotic system (Kalypsys, Inc., San Diego, CA) containing one RX-130 and two RX-90 anthropomorphic robotic arms.", "values": [
      {"molecule": "C[N+]12CCC(CC1)C(C#N)(N1CCOCC1)C2", "note": "(configuration not stated)", "Potency": "inconclusive: 8.91 µM [inhibitor, partial curve]"},
      {"molecule": "CCCC[N+]12CCC(CC1)C(Cc1ccccc1)C2", "note": "(configuration not stated)", "activity, negative = inhibition": "inactive: 4.24%"},
      {"molecule": "C=C1C(O)(c2ccccc2)C2CC[N+]1(C)CC2", "note": "(configuration not stated)", "Potency": "inconclusive: 14.1 µM [inhibitor, full curve]"},
      {"molecule": "N[C@@H](Cc1cc(I)c(O)c(I)c1)C(=O)O", "Potency": "inconclusive: 2.82 µM [inhibitor, full curve]"},
      {"molecule": "CN(N=O)c1cc(O)ccc1O", "Potency": "inconclusive: 6.31 µM [inhibitor, full curve]"},
      {"molecule": "COc1ccc2c(c1OC)C(=O)OC2C1c2cc3c(cc2CCN1C)OCO3", "note": "(configuration not stated)", "activity, negative = inhibition": "inactive: 1.45%"},
      {"molecule": "Oc1ccc2c3c1OC1C(O)CC[C@]4(O)C(C2)N(CC2CCC2)CC[C@]314", "note": "(some centres not stated)", "activity, negative = inhibition": "inactive: 1.21%"}
    ]}
  ]
}
